Experimental data taken from article doi:10.1101/2023.05.31.543024.
Where a chain is given by its changes, count along the chain named. These are yes or no findings as the source states them, for the method shown. In cells and extracts the contact can be indirect. Some entries that bind do so weakly or less than the wild type. Sequences can lack the tags named with a protein.

Legend:
Assay in all cases: co-IP
[1] = target: T1, HA-DRG1 L155E + I260R + V264K (human) (UniProt Q9Y295)
T1 sequence: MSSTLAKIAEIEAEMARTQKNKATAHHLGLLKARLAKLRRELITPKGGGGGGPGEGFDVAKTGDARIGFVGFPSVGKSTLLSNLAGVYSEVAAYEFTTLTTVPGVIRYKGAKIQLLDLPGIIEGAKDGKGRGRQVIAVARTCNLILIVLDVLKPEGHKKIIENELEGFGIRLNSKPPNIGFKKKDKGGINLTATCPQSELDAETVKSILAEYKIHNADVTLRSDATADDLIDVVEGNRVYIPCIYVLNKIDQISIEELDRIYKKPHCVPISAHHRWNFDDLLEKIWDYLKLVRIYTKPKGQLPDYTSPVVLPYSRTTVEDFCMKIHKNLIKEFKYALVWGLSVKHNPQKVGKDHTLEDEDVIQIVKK

HA-DRG2 A260Y (human) = target: T2, HA-DRG2 A260Y (human) (UniProt P55039)
T2 sequence: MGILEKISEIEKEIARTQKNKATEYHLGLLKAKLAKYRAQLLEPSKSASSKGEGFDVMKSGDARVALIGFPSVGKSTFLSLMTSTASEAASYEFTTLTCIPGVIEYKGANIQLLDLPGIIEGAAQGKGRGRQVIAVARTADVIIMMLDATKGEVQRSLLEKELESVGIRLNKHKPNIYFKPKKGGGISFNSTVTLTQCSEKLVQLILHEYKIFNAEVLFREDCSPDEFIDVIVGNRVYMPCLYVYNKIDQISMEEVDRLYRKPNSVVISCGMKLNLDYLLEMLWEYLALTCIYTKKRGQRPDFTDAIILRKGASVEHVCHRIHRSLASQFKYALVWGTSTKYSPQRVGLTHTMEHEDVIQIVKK

HA-DRG1 L155E (human) = target: T3, HA-DRG1 L155E (human) (UniProt Q9Y295)
T3 sequence: T1 sequence with R260I, K264V

[2] = target: T4, HA-DRG2 E153L + A260Y + Y278D (human) (UniProt P55039)
T4 sequence: T2 sequence with E153L, Y278D

[3] = target: T5, HA-DRG1 Y262A + D280Y (human) (UniProt Q9Y295)
T5 sequence: T1 sequence with E155L, R260I, Y262A, K264V, D280Y

B1: DRG family regulatory protein 2 (DFRP2), endogenous (protein, UniProt Q9H446 1-243)
chain: MTDYGEEQRNELEALESIYPDSFTVLSENPPSFTITVTSEAGENDETVQTTLKFTYSEKYPDEAPLYEIFSQENLEDNDVSDILKLLALQAEENLGMVMIFTLVTAVQEKLNEIVDQIKTRREEEKKQKEKEAEEAEKQLFHGTPVTIENFLNWKAKFDAELLEIKKKRMKEEEQAGKNKLSGKQLFETDHNLDTSDIQFLEDAGNNVEVDESLFQEMDDLELEDDEDDPDYNPADPESDSAD
In the case of B1, the binding [1] is reported as “binds weakly”, the binding (HA-DRG2 A260Y (human)) is reported as “no binding” and the binding (HA-DRG1 L155E (human)) is reported as “no binding”. The binding [2] was “no binding” and the binding [3] was “binds”.
